Assay results taken from patent publication US20240101687A1.

B1: 1226 minibody (Fc fusion, not shown: a dimerising Fc or GST)
chain: QSVPTQPPSASGTPGQRVTISCTGSSSNIGNNTVSWYQQLPGTAPKLLIYYDNHRPSGVPDRFSGSKSGTSASLAISGLRSEDEADYYCGSWDASLNGYVFGCGTKLTVLGGGGSGGGGSGGGGSGGGGSEVQLLESGGGLVQPGGSLRLSCAVSGFTFSNYDMSWVRQAPGKCLEWVSSISPDGGSKYYADSVKGRFTISRDNSKNTLYLQMNSLRAEDTAVYYCARDGGTHWLSLFDYWGQGTLVTVSS
B2: 1564 minibody (Fc fusion, not shown: a dimerising Fc or GST)
chain: QSVLTQPPSASGTPGQRVTISCTGSSSNIGSNDVSWYQQLPGTAPKLLIYANSNRPSGVSDRFSGSKSGTSASLAISGLRSEDEADYYCGAWDDSLNGYVFGCGTKLTVLGGGGSGGGGSGGGGSGGGGSEVQLLESGGGLVQPGGSLRLSCAASGFTFSSYDMSWVRQAPGKCLEWVSAISYDNGNTYYADSVKGRFTISRDNSKNTLYLQMNSLRAEDTAVYYCAKGVLTTLMNWFDYWGQGTLVTVSS
B3: 996 minibody (Fc fusion, not shown: a dimerising Fc or GST)
chain: QSVLTQPPSASGTPGQRVTISCTGSSSNIGSNAVNWYQQLPGTAPKLLIYSNSHRPSGVPDRFSGSKSGTSASLAISGLRSEDEADYYCATWDYSLSGYVFGCGTKLTVLGGGGSGGGGSGGGGSGGGGSEVQLLESGGGLVQTGGSLRLSCAASGFTFSSYDMSWVRQAPGKCLEWVSGIYHDGSSTYYADSVQGRFTISRDNSKNTLYLQMNSLRAEDTAVYYCARVSGTLSEPYAFFFNAMDVWGQGTLVTVSS

Target: IGFIIR
Test: ELISA, IGFIIR coated, minibody titrated 0.000256-20 nM, Abs. at 450 nm

binding, no binding (tested: 20 nM):
B1
B2
B3

No constants are given. Whether binding was seen depends on the method and setting.
